In patent US20240092890A1:
These are yes or no findings as the source states them, for the method shown. Some binding calls cover weakened binding; strength is not graded here.

What was measured:
[1] = target: full-length Ins 5 type mutant CALR with a FLAG-tag added downstream of the N-terminal signal sequence, secreted from UT-7/TPO cells (UniProt P27797); experiment: immunoblot of proteins secreted from UT-7/TPO cells
[2] = target: full-length Del 52 type mutant CALR with a FLAG-tag added downstream of the N-terminal signal sequence, secreted from UT-7/TPO cells (UniProt P27797); experiment: as above
[3] = target: cleaved Del 52 type mutant CALR with a FLAG-tag, secreted from UT-7/TPO cells (UniProt P27797); experiment: as above
[4] = target: cleaved Ins 5 type mutant CALR with a FLAG-tag, secreted from UT-7/TPO cells (UniProt P27797); experiment: as above
[5] = target: full-length Ins 5 type mutant CALR with a FLAG-tag added downstream of the N-terminal signal sequence, secreted from UT-7/TPO cells (UniProt P27797); experiment: immunoblot (SDS-PAGE, reducing) of culture supernatant of UT-7/TPO cells expressing FLAG-tagged Ins 5 mutant CALR
[6] = target: cleaved Ins 5 type mutant CALR with a FLAG-tag, secreted from UT-7/TPO cells (UniProt P27797); experiment: as above
[7] = target: full-length Del 52 type mutant CALR with a FLAG-tag added downstream of the N-terminal signal sequence, secreted from UT-7/TPO cells (UniProt P27797); experiment: immunoblot (SDS-PAGE, reducing) of culture supernatant of UT-7/TPO cells expressing FLAG-tagged Del 52 mutant CALR
[8] = target: cleaved Del 52 type mutant CALR with a FLAG-tag, secreted from UT-7/TPO cells (UniProt P27797); experiment: as above
[9] = target: full-length Ins 5 type mutant CALR with a FLAG-tag added downstream of the N-terminal signal sequence, secreted from UT-7/TPO cells (UniProt P27797); experiment: immunoblot of culture supernatant
[10] = target: full-length Del 52 type mutant CALR with a FLAG-tag added downstream of the N-terminal signal sequence, secreted from UT-7/TPO cells (UniProt P27797); experiment: immunoblot of culture supernatant
[11] = target: cleaved Del 52 type mutant CALR with a FLAG-tag, secreted from UT-7/TPO cells (UniProt P27797); experiment: immunoblot of culture supernatant
[12] = target: cleaved Ins 5 type mutant CALR with a FLAG-tag, secreted from UT-7/TPO cells (UniProt P27797); experiment: immunoblot of culture supernatant
[13] = target: T1, protein having an Fc region and a His-tag added to the N-terminus of SEQ ID NO: 1; experiment: BLItz biolayer interferometry (Table 14)
T1 sequence: RRMMRTKMRMRRM

Measured: binding

B1: clone B3 antibody (antibody, V domains shown)
VH: QVQLQQSGAELVKPGSSVKISCKASGYTFTRNFIHWIKQQPGNGLEWIGWIFPGDGDTEYNQKFNGKATLTADKSSSTAYMQLSSLTSEDSAVYFCARGNYNYEYFDYWGQGVMVTVSS
VL: DIQMTQSPASLSASLGETVSIECLASEDIYSYLAWYQQKPGKSPQLLIFAANRLQDGVPSRFSGSGSGTQFSLKISGMQPEDEGDYFCLQGSKFPYTFGPGTKLELN
not listed: [13]
binds: all other assays above

B2: Antibody 23 (bispecific antibody)
heavy: QVQLQQSGAELVKPGSSVKISCKASGYTFTRNFIHWIKQQPGNGLEWIGWIFPGDGDTEYNQKFNGKATLTADKSSSTAYMQLSSLTSEDSAVYFCARGNYNYEYFDYWGQGVMVTVSSASTKGPSVFPLAPSSKSTSGGTAALGCLVKDYFPEPVTVSWNSGALTSGVHTFPAVLQSSGLYSLSSVVTVPSSSLGTQTYICNVNHKPSNTKVDKRVEPKSCHHHHHH
light: QVQLVQSGGGVVQPGRSLRLSCKASGYTFTRYTMHWVRQAPGKGLEWIGYINPSRGYTNYNQKVKDRFTISRDNSKNTAFLQMDSLRPEDTGVYFCARYYDDHYSLDYWGQGTPVTVSSGGGGSGGGGSGGGGSDIQMTQSPSSLSASVGDRVTITCSASSSVSYMNWYQQTPGKAPKRWIYDTSKLASGVPSRFSGSGSGTDYTFTISSLQPEDIATYYCQQWSSNPFTFGQGTKLQITRGGGGSDIQMTQSPASLSASLGETVSIECLASEDIYSYLAWYQQKPGKSPQLLIFAANRLQDGVPSRFSGSGSGTQFSLKISGMQPEDEGDYFCLQGSKFPYTFGPGTKLELNRTVAAPSVFIFPPSDEQLKSGTASVVCLLNNFYPREAKVQWKVDNALQSGNSQESVTEQDSKDSTYSLSSTLTLSKADYEKHKVYACEVTHQGLSSPVTKSFNRGEC
binds: [13]

B3: Antibody 27 (bispecific antibody)
heavy: QVQLQQSGAELVKPGSSVKISCKASGYTFTRNFIHWIKQQPGNGLEWIGWIFPGDGDTEYNQKFNGKATLTADKSSSTAYMQLSSLTSEDSAVYFCARGNYNYEYFDYWGQGVMVTVSSASTKGPSVFPLAPSSKSTSGGTAALGCLVKDYFPEPVTVSWNSGALTSGVHTFPAVLQSSGLYSLSSVVTVPSSSLGTQTYICNVNHKPSNTKVDKRVEPKSCGGGGSQVQLVQSGGGVVQPGRSLRLSCKASGYTFTRYTMHWVRQAPGKGLEWIGYINPSRGYTNYNQKVKDRFTISRDNSKNTAFLQMDSLRPEDTGVYFCARYYDDHYSLDYWGQGTPVTVSSGGGGSGGGGSGGGGSDIQMTQSPSSLSASVGDRVTITCSASSSVSYMNWYQQTPGKAPKRWIYDTSKLASGVPSRFSGSGSGTDYTFTISSLQPEDIATYYCQQWSSNPFTFGQGTKLQITRHHHHHH
light: QVQLVQSGGGVVQPGRSLRLSCKASGYTFTRYTMHWVRQAPGKGLEWIGYINPSRGYTNYNQKVKDRFTISRDNSKNTAFLQMDSLRPEDTGVYFCARYYDDHYSLDYWGQGTPVTVSSGGGGSGGGGSGGGGSDIQMTQSPSSLSASVGDRVTITCSASSSVSYMNWYQQTPGKAPKRWIYDTSKLASGVPSRFSGSGSGTDYTFTISSLQPEDIATYYCQQWSSNPFTFGQGTKLQITRGGGGSDIQMTQSPASLSASLGETVSIECLASEDIYSYLAWYQQKPGKSPQLLIFAANRLQDGVPSRFSGSGSGTQFSLKISGMQPEDEGDYFCLQGSKFPYTFGPGTKLELNRTVAAPSVFIFPPSDEQLKSGTASVVCLLNNFYPREAKVQWKVDNALQSGNSQESVTEQDSKDSTYSLSSTLTLSKADYEKHKVYACEVTHQGLSSPVTKSFNRGEC
binds: [13]

B4: Antibody 26 (bispecific antibody)
heavy: QVQLVQSGGGVVQPGRSLRLSCKASGYTFTRYTMHWVRQAPGKGLEWIGYINPSRGYTNYNQKVKDRFTISRDNSKNTAFLQMDSLRPEDTGVYFCARYYDDHYSLDYWGQGTPVTVSSGGGGSGGGGSGGGGSDIQMTQSPSSLSASVGDRVTITCSASSSVSYMNWYQQTPGKAPKRWIYDTSKLASGVPSRFSGSGSGTDYTFTISSLQPEDIATYYCQQWSSNPFTFGQGTKLQITRGGGGSQVQLQQSGAELVKPGSSVKISCKASGYTFTRNFIHWIKQQPGNGLEWIGWIFPGDGDTEYNQKFNGKATLTADKSSSTAYMQLSSLTSEDSAVYFCARGNYNYEYFDYWGQGVMVTVSSASTKGPSVFPLAPSSKSTSGGTAALGCLVKDYFPEPVTVSWNSGALTSGVHTFPAVLQSSGLYSLSSVVTVPSSSLGTQTYICNVNHKPSNTKVDKRVEPKSCHHHHHH
light: QVQLVQSGGGVVQPGRSLRLSCKASGYTFTRYTMHWVRQAPGKGLEWIGYINPSRGYTNYNQKVKDRFTISRDNSKNTAFLQMDSLRPEDTGVYFCARYYDDHYSLDYWGQGTPVTVSSGGGGSGGGGSGGGGSDIQMTQSPSSLSASVGDRVTITCSASSSVSYMNWYQQTPGKAPKRWIYDTSKLASGVPSRFSGSGSGTDYTFTISSLQPEDIATYYCQQWSSNPFTFGQGTKLQITRGGGGSDIQMTQSPASLSASLGETVSIECLASEDIYSYLAWYQQKPGKSPQLLIFAANRLQDGVPSRFSGSGSGTQFSLKISGMQPEDEGDYFCLQGSKFPYTFGPGTKLELNRTVAAPSVFIFPPSDEQLKSGTASVVCLLNNFYPREAKVQWKVDNALQSGNSQESVTEQDSKDSTYSLSSTLTLSKADYEKHKVYACEVTHQGLSSPVTKSFNRGEC
binds: [13]

B5: clone C6 antibody (antibody, V domains shown)
VH: QVQLQQSGAELVKPGSSVKISCKASGYTFTSYFVHWIKQQPGDGLEWIGWIYPGDGDTEYNHKFNGKSTLTADRSSSTAYMQLSSLTSEDSAVYFCARGNYYDGREVMDAWGQGASVTVSS
VL: DVVLTQTPPTLSATIGQSVSISCRSSQSLLDSDGETYLNWLLQRPGQSPQLLIYSVSNLESGVPNRFSGSGSETDFTLKISGMEAEDLGVYYCMQATHGPYTFGAGTKLELK
not listed: [5] | [7] | [13]
binds: all other assays above

B6: clone G1 antibody (antibody, V domains shown)
VH: QVQLQQSGAELVKPGSSVKISCKASGYTFTSYFVHWIKQQPGDGLEWIGWIYPGDGDTEYNQKFNGKATLTADRSSSTAYMQLSSLTSEDSAVYFCARGNYYDGREVMDAWGQGASVTVSS
VL: DVVLTQTPPTLSATIGQSVSISCRSSQSLLDSDGETYLNWLLQRPGQCPQLLIYSVSNLESGVPNRFSGSGSETDFTLKISGVEAEDLGVYYCMQGTHGPYTFGAGTKLELK
not listed: [5] | [7] | [13]
binds: all other assays above
